Hit rate of the full screen: of about 210,000 compounds, about 5,900 (2.8%) were called active. Roughly 5% stayed inconclusive and do not appear here. The call rests on the fitted dose curve; in most records, active means well fitted activation curve with a large enough effect; inconclusive means small, poorly fitted or top-dose-only effect; inactive means no such curve, though single readings can be large or run the other way. The list shows a part of the results, in another mix than the full data. Entries without a call were filed so in the source.
Assay: qHTS Assay for Enhancers of SMN2 Splice Variant Expression; further: nearly all actives have a fitted effect of over 55% in size; on activity change, positive = activation: % of control where 0% means no effect
Details: HEK293 SMN2-luciferase splicing reporter, luminescence, 30-36 h; activity change, positive = activation: at 46.1 µM (top of the series) unless noted
How it was run: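 qHTS luciferase splicing reporter: luminescence rises when SMN2 exon 7 is included in transfected HEK293 cells. Compound exposure lasted 30-36 h at 37C, with 4.5 mM final sodium butyrate as control, followed by a ONE-Glo read.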
Potency means the concentration at half of the fitted maximal effect.

Row | SMILES | activity change, positive = activation | Potency
1 | CCSc1cc(C2C(C#N)=C(N)OC(C)=C2C(=O)OC)c(C)o1 (stereo not given) | 34.1% | 
2 | CCCc1ncc(C(O)c2ccccc2OC)n1C (stereo not given) | inactive: -33.3% | 
3 | CC(=O)Nc1cccc(NC(=O)c2c(-c3ccccc3Cl)noc2C)c1 | -30.4% | 
4 | CCn1cc(C(=O)O)c(=O)c2cc(F)c(N/N=C/c3ccccc3)cc21 | -78.7% | 
5 | Cc1ccc(-c2cn(-c3ccc(SC(F)F)cc3)c3[n+]2CCC3)cc1 | -59.8% | 
6 | Cn1nc(C(=O)N2CCCC2)c2ccccc2c1=O | 46.5% | 
7 | CCOC(=O)/C=C/c1cnn(-c2ccccc2)c1 | 71.7% | 
8 | CCOC(=O)c1ccc(NC(=S)N2CCC(O)CC2)cc1 | 37.4% | 
9 | COc1ccc2c(c1)C(=O)[C@@H](O)[C@H](c1ccc(OC)c(Br)c1)O2 |  | inactive
10 | CCCn1c(C)cc(C(=O)COC(=O)c2ccc[nH]c2=O)c1C | -10.8% | 
11 | Cc1ccc(-n2ncc3ccccc3c2=O)cc1Cl |  | active: 14.1 µM
12 | COC(=O)c1ccc(NC2CC(=O)N(c3ccccc3C)C2=O)cc1 (stereo not given) | 33.6% | 
13 | CCOC(=O)c1sc(=NC(=O)c2cccc(C)c2)n(C)c1C |  | active: 10 µM
14 | CC(=O)n1nc(-c2ccc(Cl)cc2)nc1NCc1ccco1 | 39.3% | 
15 | CC(=O)Oc1cc(OC(C)=O)c2c(c1)OC(c1ccc(OC(C)=O)c(OC(C)=O)c1)C(OC(C)=O)C2 (stereo not given) |  | inactive
16 | CC(C)OC(=O)c1ccc(NC(=O)c2ccccc2)cc1 |  | active: 12.6 µM
17 | COc1ccccc1/C=N/NC(=S)Nc1cccnc1 | 51.8% | 
18 | Cc1ccc(S(=O)(=O)N2CCC(=O)N(C(CO)C(C)C)CC2)cc1 (stereo not given) | 39.3% | 
19 | O=C(Nc1ccc(F)cc1)N(CCCN1CCOCC1)Cc1cc2cc3c(cc2[nH]c1=O)OCCO3 | inactive: -52.6% | 
20 | COC(=O)C1=C(O)/C(=C\c2ccc(O)c(OC)c2)N=C1C | 35.9% | 
21 | O=C(CSc1ncn(-c2ccccc2)n1)Nc1ccc(Br)cn1 | 30.9% | 
22 | COCCCNC(=O)c1ccc(-c2csc(C)n2)cc1 | 75.6% | 
23 | CCOC(=O)c1[nH]c2cc(OC)c(OC)cc2c1NC(=O)CN1CCN(C)CC1 | 32% | 
24 | CCOC(=O)C(NC(C)=O)(NS(=O)(=O)c1ccccc1)C(F)(F)F (stereo not given) | 32.7% | 

Row | SMILES | activity change, positive = activation | Potency
25 | CSc1ncccc1C(=O)OCc1ccccc1Cl | 36.1% | 
26 | c1ccc(Cn2ccc(-c3cnc(-c4ccccc4)s3)n2)cc1 | 49% | 
27 | O=[N+]([O-])c1cc(Br)c(O)c(/C=N/Nc2nc3ccccc3s2)c1 | inactive: -60.1% | 
28 | Fc1ccc(NC(=S)Nc2cccc3cnccc23)cc1 | -42.9% | 
29 | CN1/C(=C/C(=O)c2nc(S(C)(=O)=O)ncc2Cl)C(C)(C)c2ccccc21 | -102% | 
30 | O=C(Nc1ccccc1)Nc1ccc(C(=O)N2CCOCC2)cc1 |  | active: 20 µM
31 | FC(F)(F)c1cccc(N2CCN(C(=S)NCC3CCCO3)CC2)c1 (stereo not given) | inactive: -68.8% | 
32 | Cc1cnc(C(=O)Nc2ccc(F)cc2)cn1 |  | active: 12.6 µM
33 | Cc1cccc(-c2nsc(SCC(=O)N3CCCC3)n2)c1 |  | active: 14.1 µM
34 | Cc1sc(NC(=O)C2CCCO2)c(C#N)c1C (stereo not given) | 45.9% | 
35 | COC(=O)CNC(=O)c1nn(-c2cccc(OC)c2)c(=O)c2ccccc12 | 36% | 
36 | CCCOc1ccc(C(=O)ON=C2CCN(C)CC2)cc1 | inactive: -24.6% | 
37 | NC(=O)CSc1nnc(-c2cc3ccccc3o2)n1Cc1ccccc1 | 23.6% | 
38 | CCOc1cc(CO)ccc1OCC(=O)N1CCCCC1 | 38.1% | 
39 | CC(/C=N/NC(=O)Cc1cccs1)=C\c1ccccc1 | 69.7% | 
40 | O=C(COC(=O)CCc1ccc(S(=O)(=O)N2CCOCC2)cc1)Nc1ccc(Cl)cn1 | 30.8% | 
41 | COc1ccc(Cc2nc3ccccc3n2Cc2ccccc2F)cc1 | inactive: -34.4% | 
42 | O=C(Nc1nccs1)c1ccc(Br)c(S(=O)(=O)N2CCOCC2)c1 | inactive: -48.6% | 
43 | Cc1cc(C)c(C#N)c(SCc2nc3ccccc3[nH]2)n1 |  | active: 10 µM
44 | Cc1cc(NC(=O)CCC(=O)N(CC(=O)NC2CCCC2)Cc2ccco2)no1 | 32.3% | 
45 | CCn1c(C(=O)N2CCCC(C(=O)N3CCN(c4cc(C)ccc4C)CC3)C2)cc2sccc21 (stereo not given) | inactive: -42.7% | 
46 | Cc1ccc2nc(-c3ccc(NC(=O)COc4ccccc4)cc3)sc2c1 |  | active: 1.26 µM
47 | Cc1ccc(NS(=O)(=O)c2cccc(C(=O)NNC(=O)NC3CCCCC3)c2)c(C)c1 | 44.8% | 
48 | Nc1c(C(=O)c2ccccc2)oc2ccc(Br)cc12 |  | active: 15.8 µM

Given in CSV form: 18 of the compounds above.
Row,SMILES,"activity change, positive = activation",Potency
28,Fc1ccc(NC(=S)Nc2cccc3cnccc23)cc1,-42.9%,
29,CN1/C(=C/C(=O)c2nc(S(C)(=O)=O)ncc2Cl)C(C)(C)c2ccccc21,-102%,
30,O=C(Nc1ccccc1)Nc1ccc(C(=O)N2CCOCC2)cc1,,active: 20 µM
31,FC(F)(F)c1cccc(N2CCN(C(=S)NCC3CCCO3)CC2)c1 (stereo not given),inactive: -68.8%,
32,Cc1cnc(C(=O)Nc2ccc(F)cc2)cn1,,active: 12.6 µM
33,Cc1cccc(-c2nsc(SCC(=O)N3CCCC3)n2)c1,,active: 14.1 µM
34,Cc1sc(NC(=O)C2CCCO2)c(C#N)c1C (stereo not given),45.9%,
35,COC(=O)CNC(=O)c1nn(-c2cccc(OC)c2)c(=O)c2ccccc12,36%,
36,CCCOc1ccc(C(=O)ON=C2CCN(C)CC2)cc1,inactive: -24.6%,
37,NC(=O)CSc1nnc(-c2cc3ccccc3o2)n1Cc1ccccc1,23.6%,
38,CCOc1cc(CO)ccc1OCC(=O)N1CCCCC1,38.1%,
39,CC(/C=N/NC(=O)Cc1cccs1)=C\c1ccccc1,69.7%,
40,O=C(COC(=O)CCc1ccc(S(=O)(=O)N2CCOCC2)cc1)Nc1ccc(Cl)cn1,30.8%,
41,COc1ccc(Cc2nc3ccccc3n2Cc2ccccc2F)cc1,inactive: -34.4%,
42,O=C(Nc1nccs1)c1ccc(Br)c(S(=O)(=O)N2CCOCC2)c1,inactive: -48.6%,
43,Cc1cc(C)c(C#N)c(SCc2nc3ccccc3[nH]2)n1,,active: 10 µM
44,Cc1cc(NC(=O)CCC(=O)N(CC(=O)NC2CCCC2)Cc2ccco2)no1,32.3%,
45,CCn1c(C(=O)N2CCCC(C(=O)N3CCN(c4cc(C)ccc4C)CC3)C2)cc2sccc21 (stereo not given),inactive: -42.7%,

2 successive compounds from above, for reference:
Row | SMILES | activity change, positive = activation | Potency
25 | CSc1ncccc1C(=O)OCc1ccccc1Cl | 36.1% | 
26 | c1ccc(Cn2ccc(-c3cnc(-c4ccccc4)s3)n2)cc1 | 49% | 

(continued)

Row | SMILES | activity change, positive = activation | Potency
49 | Clc1ccc(Cn2ccc(C3CC3)n2)cc1 | 49.1% | 
50 | CC(=O)c1cccc(NC(=O)c2cnn3ccccc23)c1 | 114% | 
51 | Cc1cc(C)nc(NC(=O)/C=C/c2ccc3c(c2)OCO3)c1 | 198% | 
52 | CC12C(=O)N(Cc3ccco3)C(=O)C1C1c3ccccc3C2c2ccccc21 (stereo not given) | inactive: -36.2% | 
53 | CS(=O)(=O)N1CCC(c2noc(-c3ccc(C(F)(F)F)cc3)n2)CC1 | -73.3% | 
54 | CCOc1cc(NC(=O)C2CCCO2)c(OCC)cc1NC(=O)C1CC1 (stereo not given) | 43.2% | 
55 | Cc1ccc2cc3cc(C(=O)N4CCCCC4C)oc3nc2c1 (stereo not given) |  | active: 11.2 µM
56 | COCCNC(=O)c1ccc(-n2c(SCc3cc(F)ccc3F)nc3ccccc3c2=O)cc1 | -28.4% | 
57 | C/C(=N\Nc1ncc(Cl)cc1Cl)c1cccs1 |  | active: 11.2 µM
58 | Cc1nc2ccc(-c3nc4cc(N)ccc4o3)cc2[nH]1 |  | active: 2.82 µM
59 | CCOC(=O)/C(C#N)=C/c1ccc(OC)c(OC)c1 | 40.4% | 
60 | CCc1nnc(NC(=O)c2c(O)c3cccc4c3n(c2=O)CC4)s1 | -27.9% | 
61 | CC(C)(C)c1cc(CN2CCCCC2)cc(C(C)(C)C)c1O | 17.2% | 
62 | CCN(CC)c1ccc(/C=C(/C#N)C(=O)NCc2ccccc2)o1 | 6.41% | 
63 | CCc1ccc(C(=O)COC(=O)c2ccc(-c3nnc(-c4ccccc4)o3)cc2)cc1 |  | active: 7.94 µM
64 | Cc1ccc([N+](=O)[O-])cc1N=Nc1c(-c2ccc([N+](=O)[O-])cc2)[nH]n(C(N)=S)c1=O | inactive: -70.7% | 
65 | Nc1cc(C2CCCC2)nn1-c1ccccc1 |  | active: 20 µM
66 | O=P1(Nn2cnnc2)C=C(c2ccccc2)OC(c2ccccc2)=C1 | 30.2% | 
67 | Cc1ccc2nc(-c3ccc(NC(=O)CCS(=O)(=O)c4ccccc4)cc3)sc2c1 | -64.1% | 
68 | O=C(NC1CCCC1)c1ccc(COCC(F)(F)F)o1 | 36.4% | 
69 | Cc1cccc(-c2nnc(SCC(=O)N3CCCCC3)o2)c1 |  | active: 4.47 µM
70 | CCn1c(Sc2ccc(N)cc2Cl)nc2ccccc21 | 49.1% | 
